Measured values from article PMC12181301.
These are yes or no findings as the source states them, for the method shown. In cells and extracts the contact can be indirect. Some binding calls cover weakened binding; strength is not graded here.

Protein sequences, listed by entry. Tags and fused reporters are not part of them.
UniProt P02340: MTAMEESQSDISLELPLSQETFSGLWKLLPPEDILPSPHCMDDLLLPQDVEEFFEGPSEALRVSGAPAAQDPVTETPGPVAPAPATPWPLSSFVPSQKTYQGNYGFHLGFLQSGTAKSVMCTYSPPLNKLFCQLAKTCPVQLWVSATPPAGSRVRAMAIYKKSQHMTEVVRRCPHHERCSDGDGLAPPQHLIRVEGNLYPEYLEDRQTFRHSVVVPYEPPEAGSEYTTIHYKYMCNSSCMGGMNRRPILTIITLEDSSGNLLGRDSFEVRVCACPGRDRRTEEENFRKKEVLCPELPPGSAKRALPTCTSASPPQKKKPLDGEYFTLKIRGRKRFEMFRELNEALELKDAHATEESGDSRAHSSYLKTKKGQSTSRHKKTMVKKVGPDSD

Molecular target: T1, Iron-Sulfur Cluster Assembly Enzyme (ISCU) (mouse (endogenous in RAW264.7 or BMDM)) (UniProt Q9D7P6)
T1 sequence: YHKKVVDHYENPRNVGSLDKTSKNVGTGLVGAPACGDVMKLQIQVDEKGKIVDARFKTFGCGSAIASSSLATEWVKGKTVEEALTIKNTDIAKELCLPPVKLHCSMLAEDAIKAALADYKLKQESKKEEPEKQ
Test: co-IP; whole-cell lysates of macrophages (M0 or M2 polarised; si-NC or si-ISCU) incubated with 1 ug antibody overnight at 4 C, then protein A/G agarose beads for 4 h at 4 C; immunoblot of the immunoprecipitates

p53 protein (from UniProt P02340 1-390) was tested, and the binding was “binds”.
